Assay results as given in the supplement of paper PMC10849652.
This is one part of the list.

Protein sequences, listed by entry. Tags and fused reporters are not part of them. Lines headed by an entry give the natural chain unless they say otherwise; changes in a name come on top.
UniProt Q8WVM7: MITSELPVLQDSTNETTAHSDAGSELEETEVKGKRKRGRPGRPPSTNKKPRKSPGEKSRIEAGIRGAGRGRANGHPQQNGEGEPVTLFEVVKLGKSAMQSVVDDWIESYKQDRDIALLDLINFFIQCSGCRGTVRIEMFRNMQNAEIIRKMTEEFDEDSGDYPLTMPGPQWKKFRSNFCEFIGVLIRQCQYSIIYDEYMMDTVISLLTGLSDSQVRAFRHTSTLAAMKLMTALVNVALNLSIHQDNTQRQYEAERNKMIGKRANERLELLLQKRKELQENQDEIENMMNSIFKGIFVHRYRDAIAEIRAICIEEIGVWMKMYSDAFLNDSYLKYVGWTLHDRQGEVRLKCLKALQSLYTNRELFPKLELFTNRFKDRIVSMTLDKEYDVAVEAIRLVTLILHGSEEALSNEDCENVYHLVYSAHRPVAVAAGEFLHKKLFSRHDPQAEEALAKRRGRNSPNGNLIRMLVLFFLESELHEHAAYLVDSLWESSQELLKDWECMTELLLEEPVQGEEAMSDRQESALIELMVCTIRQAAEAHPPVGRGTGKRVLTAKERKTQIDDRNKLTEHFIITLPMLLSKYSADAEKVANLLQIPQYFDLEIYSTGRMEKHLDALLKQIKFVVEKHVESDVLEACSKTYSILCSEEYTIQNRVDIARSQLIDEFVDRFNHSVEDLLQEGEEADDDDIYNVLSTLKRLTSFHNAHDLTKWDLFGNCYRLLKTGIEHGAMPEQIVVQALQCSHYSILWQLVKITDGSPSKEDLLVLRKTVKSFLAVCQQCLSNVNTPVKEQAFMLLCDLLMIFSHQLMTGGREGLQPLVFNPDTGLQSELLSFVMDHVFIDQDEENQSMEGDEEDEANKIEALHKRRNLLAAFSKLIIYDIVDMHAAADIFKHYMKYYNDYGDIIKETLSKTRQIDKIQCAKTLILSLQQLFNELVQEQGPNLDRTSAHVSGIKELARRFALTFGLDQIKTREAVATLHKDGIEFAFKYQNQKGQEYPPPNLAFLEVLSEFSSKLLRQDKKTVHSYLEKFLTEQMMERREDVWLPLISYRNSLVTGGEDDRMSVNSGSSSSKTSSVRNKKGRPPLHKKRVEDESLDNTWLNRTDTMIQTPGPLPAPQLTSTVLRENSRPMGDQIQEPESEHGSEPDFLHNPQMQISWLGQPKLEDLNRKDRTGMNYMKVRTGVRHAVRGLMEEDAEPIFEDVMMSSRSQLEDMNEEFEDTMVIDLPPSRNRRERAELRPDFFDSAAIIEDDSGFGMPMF
UniProt Q8TCT8: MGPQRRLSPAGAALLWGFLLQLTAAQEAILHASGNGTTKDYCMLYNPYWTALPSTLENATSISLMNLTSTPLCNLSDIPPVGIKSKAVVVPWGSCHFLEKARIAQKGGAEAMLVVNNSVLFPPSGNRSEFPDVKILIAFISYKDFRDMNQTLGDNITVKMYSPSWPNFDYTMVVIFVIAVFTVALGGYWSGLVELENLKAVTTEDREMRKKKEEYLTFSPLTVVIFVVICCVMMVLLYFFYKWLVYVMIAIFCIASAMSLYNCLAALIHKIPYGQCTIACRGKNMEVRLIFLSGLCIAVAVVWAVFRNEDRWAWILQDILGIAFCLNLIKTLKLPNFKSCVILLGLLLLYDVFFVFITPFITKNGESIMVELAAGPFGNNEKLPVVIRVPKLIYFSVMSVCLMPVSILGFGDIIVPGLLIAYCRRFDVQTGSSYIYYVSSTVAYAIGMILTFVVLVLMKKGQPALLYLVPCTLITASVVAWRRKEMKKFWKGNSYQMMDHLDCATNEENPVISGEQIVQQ
UniProt O75177, whole entry, looked up: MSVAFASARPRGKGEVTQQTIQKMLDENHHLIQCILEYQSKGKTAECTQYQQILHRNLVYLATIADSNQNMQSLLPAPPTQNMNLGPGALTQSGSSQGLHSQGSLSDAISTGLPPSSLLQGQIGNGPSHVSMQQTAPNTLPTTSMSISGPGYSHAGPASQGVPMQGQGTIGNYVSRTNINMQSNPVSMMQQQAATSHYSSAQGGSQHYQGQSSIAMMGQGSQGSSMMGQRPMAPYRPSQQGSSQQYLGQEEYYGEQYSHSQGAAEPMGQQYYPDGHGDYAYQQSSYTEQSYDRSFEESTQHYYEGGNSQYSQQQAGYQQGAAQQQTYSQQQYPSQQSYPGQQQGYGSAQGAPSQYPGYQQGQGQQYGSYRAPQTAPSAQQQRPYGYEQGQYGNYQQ
UniProt Q92502: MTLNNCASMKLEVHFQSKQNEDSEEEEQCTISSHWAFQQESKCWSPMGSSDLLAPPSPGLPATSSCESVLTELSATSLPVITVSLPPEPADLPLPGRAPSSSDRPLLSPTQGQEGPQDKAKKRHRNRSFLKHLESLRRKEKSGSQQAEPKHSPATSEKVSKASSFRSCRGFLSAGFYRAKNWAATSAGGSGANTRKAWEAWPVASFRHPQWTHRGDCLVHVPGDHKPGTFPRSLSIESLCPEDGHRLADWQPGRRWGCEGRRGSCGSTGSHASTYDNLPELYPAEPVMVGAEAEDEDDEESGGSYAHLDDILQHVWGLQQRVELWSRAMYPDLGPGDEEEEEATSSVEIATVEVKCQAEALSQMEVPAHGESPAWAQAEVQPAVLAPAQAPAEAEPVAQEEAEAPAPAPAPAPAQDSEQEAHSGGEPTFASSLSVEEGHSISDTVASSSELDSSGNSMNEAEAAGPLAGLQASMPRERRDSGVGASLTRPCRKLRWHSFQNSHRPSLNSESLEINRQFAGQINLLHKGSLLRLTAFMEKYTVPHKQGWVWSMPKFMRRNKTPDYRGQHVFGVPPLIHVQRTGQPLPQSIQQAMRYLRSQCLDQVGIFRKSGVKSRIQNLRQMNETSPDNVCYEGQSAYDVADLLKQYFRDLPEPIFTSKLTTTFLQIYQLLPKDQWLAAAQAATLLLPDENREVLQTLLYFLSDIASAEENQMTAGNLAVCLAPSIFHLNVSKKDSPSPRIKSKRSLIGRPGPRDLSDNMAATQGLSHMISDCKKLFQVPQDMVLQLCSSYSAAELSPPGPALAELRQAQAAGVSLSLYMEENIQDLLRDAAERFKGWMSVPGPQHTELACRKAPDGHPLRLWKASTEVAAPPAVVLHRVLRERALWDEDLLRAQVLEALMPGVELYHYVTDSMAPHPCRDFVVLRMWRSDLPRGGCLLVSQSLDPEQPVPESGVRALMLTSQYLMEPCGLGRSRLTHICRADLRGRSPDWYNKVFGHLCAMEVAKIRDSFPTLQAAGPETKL
UniProt O43278: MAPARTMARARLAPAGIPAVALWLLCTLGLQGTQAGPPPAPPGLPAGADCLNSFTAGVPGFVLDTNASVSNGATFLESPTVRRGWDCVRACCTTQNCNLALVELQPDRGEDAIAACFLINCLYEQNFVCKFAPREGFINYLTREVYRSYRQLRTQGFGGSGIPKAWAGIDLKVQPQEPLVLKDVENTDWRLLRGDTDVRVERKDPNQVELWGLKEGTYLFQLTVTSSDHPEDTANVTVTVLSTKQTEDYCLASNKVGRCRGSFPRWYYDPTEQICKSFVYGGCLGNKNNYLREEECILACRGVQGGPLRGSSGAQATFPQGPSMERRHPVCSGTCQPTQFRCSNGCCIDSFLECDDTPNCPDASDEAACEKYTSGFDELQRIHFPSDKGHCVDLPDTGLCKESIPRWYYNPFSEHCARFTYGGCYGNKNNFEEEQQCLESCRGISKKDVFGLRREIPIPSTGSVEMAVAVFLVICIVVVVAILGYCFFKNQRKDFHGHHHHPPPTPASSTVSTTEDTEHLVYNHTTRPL
UniProt Q11206: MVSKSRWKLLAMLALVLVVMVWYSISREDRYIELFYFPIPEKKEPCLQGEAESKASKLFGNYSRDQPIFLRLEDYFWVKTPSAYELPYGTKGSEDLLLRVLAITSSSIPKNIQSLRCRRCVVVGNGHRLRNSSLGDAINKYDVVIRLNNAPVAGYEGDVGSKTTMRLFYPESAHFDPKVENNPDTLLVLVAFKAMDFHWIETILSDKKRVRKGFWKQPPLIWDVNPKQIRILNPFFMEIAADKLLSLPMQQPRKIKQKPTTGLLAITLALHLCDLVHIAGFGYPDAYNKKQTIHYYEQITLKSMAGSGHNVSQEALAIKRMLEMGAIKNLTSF
UniProt Q8N9Q2: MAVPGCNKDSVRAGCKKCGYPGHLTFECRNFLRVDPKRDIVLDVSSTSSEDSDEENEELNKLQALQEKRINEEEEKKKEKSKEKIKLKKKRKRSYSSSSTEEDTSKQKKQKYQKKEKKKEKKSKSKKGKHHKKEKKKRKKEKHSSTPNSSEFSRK
UniProt P43308: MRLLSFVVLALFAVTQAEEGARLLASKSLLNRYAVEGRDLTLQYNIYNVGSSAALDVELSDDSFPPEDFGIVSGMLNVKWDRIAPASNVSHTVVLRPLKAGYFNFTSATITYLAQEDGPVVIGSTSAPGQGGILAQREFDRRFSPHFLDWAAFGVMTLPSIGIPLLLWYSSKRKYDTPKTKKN
UniProt P36956: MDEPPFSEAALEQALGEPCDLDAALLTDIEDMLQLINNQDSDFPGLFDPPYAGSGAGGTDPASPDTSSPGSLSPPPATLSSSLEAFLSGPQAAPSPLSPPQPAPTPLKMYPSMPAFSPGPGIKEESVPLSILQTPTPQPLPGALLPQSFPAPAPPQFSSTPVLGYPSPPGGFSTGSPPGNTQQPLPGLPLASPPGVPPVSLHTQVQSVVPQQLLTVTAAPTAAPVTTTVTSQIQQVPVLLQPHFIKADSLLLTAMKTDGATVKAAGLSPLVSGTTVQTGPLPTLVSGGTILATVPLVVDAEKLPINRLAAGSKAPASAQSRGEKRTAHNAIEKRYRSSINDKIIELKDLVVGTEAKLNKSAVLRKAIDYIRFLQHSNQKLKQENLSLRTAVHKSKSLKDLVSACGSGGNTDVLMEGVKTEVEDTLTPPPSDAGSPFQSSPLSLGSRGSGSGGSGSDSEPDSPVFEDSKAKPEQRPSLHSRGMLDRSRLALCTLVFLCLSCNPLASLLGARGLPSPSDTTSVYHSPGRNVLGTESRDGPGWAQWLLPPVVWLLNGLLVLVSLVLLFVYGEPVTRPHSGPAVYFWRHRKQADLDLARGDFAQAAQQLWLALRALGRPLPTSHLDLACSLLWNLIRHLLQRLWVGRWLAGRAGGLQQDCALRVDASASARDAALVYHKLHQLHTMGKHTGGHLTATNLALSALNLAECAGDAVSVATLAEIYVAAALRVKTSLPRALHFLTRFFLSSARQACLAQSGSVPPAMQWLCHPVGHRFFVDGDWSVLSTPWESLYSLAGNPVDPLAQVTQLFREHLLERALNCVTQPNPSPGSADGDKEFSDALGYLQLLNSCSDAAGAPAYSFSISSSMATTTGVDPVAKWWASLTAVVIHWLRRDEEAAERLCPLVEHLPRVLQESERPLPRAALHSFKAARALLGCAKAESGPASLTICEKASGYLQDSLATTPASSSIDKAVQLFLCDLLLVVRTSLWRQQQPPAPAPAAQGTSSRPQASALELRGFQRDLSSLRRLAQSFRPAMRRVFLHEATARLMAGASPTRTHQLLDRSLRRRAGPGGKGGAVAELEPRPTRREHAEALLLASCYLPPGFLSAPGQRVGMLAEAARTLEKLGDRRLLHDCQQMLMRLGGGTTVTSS
UniProt Q56A73: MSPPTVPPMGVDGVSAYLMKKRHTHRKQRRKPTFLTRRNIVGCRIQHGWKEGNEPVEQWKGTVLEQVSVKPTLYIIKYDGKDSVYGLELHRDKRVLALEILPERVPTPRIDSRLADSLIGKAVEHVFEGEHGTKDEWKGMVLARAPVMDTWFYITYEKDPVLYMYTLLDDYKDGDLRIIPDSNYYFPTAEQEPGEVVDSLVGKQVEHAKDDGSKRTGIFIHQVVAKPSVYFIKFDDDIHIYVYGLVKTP
UniProt O43597: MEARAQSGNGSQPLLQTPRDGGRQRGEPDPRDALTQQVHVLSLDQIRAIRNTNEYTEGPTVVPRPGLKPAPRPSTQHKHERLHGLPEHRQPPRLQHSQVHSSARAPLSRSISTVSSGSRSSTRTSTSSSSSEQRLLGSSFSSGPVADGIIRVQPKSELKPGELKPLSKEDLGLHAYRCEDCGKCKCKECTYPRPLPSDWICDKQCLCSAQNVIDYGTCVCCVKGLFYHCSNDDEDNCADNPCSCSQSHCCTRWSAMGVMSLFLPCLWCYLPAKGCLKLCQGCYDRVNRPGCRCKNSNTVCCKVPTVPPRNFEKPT
UniProt Q11201: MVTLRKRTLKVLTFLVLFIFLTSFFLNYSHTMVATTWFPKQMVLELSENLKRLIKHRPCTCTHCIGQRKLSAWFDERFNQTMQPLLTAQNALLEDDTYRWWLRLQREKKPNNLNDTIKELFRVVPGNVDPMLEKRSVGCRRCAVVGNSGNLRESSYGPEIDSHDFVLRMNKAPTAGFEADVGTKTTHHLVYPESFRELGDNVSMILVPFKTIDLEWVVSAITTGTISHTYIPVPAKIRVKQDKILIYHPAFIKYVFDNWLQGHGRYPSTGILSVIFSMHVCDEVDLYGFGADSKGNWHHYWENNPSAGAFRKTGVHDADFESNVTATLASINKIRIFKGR

Tests used:
Assay in all cases: log2 fold change, soluble protein after heating vs DMSO (PISA); higher = thermal stabilisation; K562 lysate, 10 uM; active = over 0.2 and 3.5 SD of the protein, either way, in both replicates (recomputed)
ibrutinib = compound: C=CC(=O)N1CCC[C@@H](n2nc(-c3ccc(Oc4ccccc4)cc3)c3c(N)ncnc32)C1 [ibrutinib]
Procedure, shortened: (§1)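 Soluble protein was defined as the supernatant remaining after 21,000xg for 90 min, following pooling of heated aliquots and adjustment to 0.5% NP-40 at 4°C. Before that, crude K562 extract at 1 mg/mL protein in PBS pH 7.4 with 1 mM MgCl2 was treated with 10 μM compound for 30 min and heated for 3 min across 48°C-58°C. Quantification used TMTpro 16plex LC-MS/MS with channel sums equalised, and values are log-two fold changes in thermal stability relative to solvent controls from duplicates.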

[1] = compound: CC(=O)c1cnc2ccc(-c3cc(Cl)c(O)c(Cl)c3)nc2c1N[C@H]1CC[C@H](CN(C)C)CC1
Procedure, shortened: as §1

ralimetinib = compound: CC(C)(C)Cn1c(N)nc2ccc(-c3[nH]c(C(C)(C)C)nc3-c3ccc(F)cc3)nc21 [ralimetinib]
Procedure, shortened: as §1

[2] = compound: CC(C)(O)CC(=O)NCCn1ccc2ncnc(Nc3ccc(Oc4cccc(C(F)(F)F)c4)c(Cl)c3)c21
Procedure, shortened: as §1

[3] = compound: CC(C)C1=C2N=C(C=C(N2N=C1)NCC3=CC=CC=C3)NCCCCCCN
Procedure, shortened: as §1

[4] = compound: CC1=C(C(CC(=O)N1)C2=CC=C(C=C2)C(F)(F)F)C(=O)NC3=C(C=C4C(=C3)C=NN4)F
Procedure, shortened: as §1

[5] = compound: CC1=C(C2=C(C=C1)C(=O)C3=CC=CC=C3N2CCCN)C
Procedure, shortened: as §1

[6] = compound: CC1=C(C=C(C=C1)NC(=O)C2=CC(=CC=C2)C(C)(C)C#N)NC3=CC4=C(C=C3)N=CN(C4=O)C
Procedure, shortened: as §1

[7] = compound: CC1=C(C=C(C=C1)NC(=O)C2=CC(=CC=C2)N(C)C)NC(=O)C3=CC=C(C=C3)O
Procedure, shortened: as §1

[8] = compound: CC1=CC=C(C=C1)SC2=C3C=C(SC3=CN=C2)C(=O)N
Procedure, shortened: as §1

[9] = compound: CCCS(=O)(=O)Nc1ccc(F)c(C(=O)c2c[nH]c3ncc(Cl)cc23)c1F
Procedure, shortened: as §1

barasertib = compound: CCN(CCCOc1ccc2c(Nc3cc(CC(=O)Nc4cccc(F)c4)[nH]n3)ncnc2c1)CCOP(=O)(O)O [barasertib]
Procedure, shortened: as §1

[10] = compound: CC[C@@H]1C(=O)N(C)c2cnc(Nc3ccc(C(=O)NC4CCN(C)CC4)cc3OC)nc2N1C1CCCC1
Procedure, shortened: as §1

volasertib = compound: CC[C@@H]1C(=O)N(C)c2cnc(Nc3ccc(C(=O)N[C@H]4CC[C@H](N5CCN(CC6CC6)CC5)CC4)cc3OC)nc2N1C(C)C [volasertib]
Procedure, shortened: as §1

[11] = compound: CCn1c(C(=O)N(C2CC2)C2CC2)cc2c3c(ncn3C)c(Nc3cc(C)n(C)n3)nc21
Procedure, shortened: as §1

[12] = compound: CCn1cc(-c2ccnc3[nH]c(-c4cccc(CN(C)C)c4)cc23)c(-c2ccc(NC(=O)N(C)C)cc2)n1
Procedure, shortened: as §1

[13] = compound: CN1CCC(CNc2ccc3ncc(-c4cccc(OC(F)(F)F)c4)n3n2)CC1
Procedure, shortened: as §1

saracatinib = compound: CN1CCN(CCOc2cc(OC3CCOCC3)c3c(Nc4c(Cl)ccc5c4OCO5)ncnc3c2)CC1 [saracatinib]
Procedure, shortened: as §1

sotrastaurin = compound: CN1CCN(c2nc(C3=C(c4c[nH]c5ccccc45)C(=O)NC3=O)c3ccccc3n2)CC1 [sotrastaurin]
Procedure, shortened: as §1

vemurafenib = compound: CCCS(=O)(=O)Nc1ccc(F)c(C(=O)c2c[nH]c3ncc(-c4ccc(Cl)cc4)cc23)c1F [vemurafenib]
Procedure, shortened: as §1

Measured: log2 fold change

STAG1 (UniProt Q8WVM7)
inactive: ibrutinib -0.062 | [1] -0.045 | ralimetinib -0.022 | [2] -0.059 | [3] -0.029 | [4] 0 | [5] -0.054 | [6] -0.082 | [7] -0.004 | [8] 0.014 | [9] -0.025 | barasertib -0.064 | [10] -0.088 | volasertib -0.081 | [11] 0.016 | [12] -0.244 | [13] 0.067 | saracatinib 0.024 | sotrastaurin 0.066

SPPL2A (UniProt Q8TCT8)
inactive: ibrutinib -0.081 | [1] 0.154 | ralimetinib -0.152 | [2] -0.219 | [3] 0.004 | [6] 0.138 | [7] 0.091 | [8] -0.008 | vemurafenib 0.312 | [9] 0.023 | barasertib 0.077 | [10] -0.016 | volasertib 0.011 | [11] -0.062 | [12] -0.196 | [13] 0.202 | sotrastaurin -0.029

SS18L1 (UniProt O75177)
inactive: ibrutinib 0.019 | ralimetinib -0.168 | [2] 0.022 | [3] 0.026 | [4] 0.142 | [6] 0.039 | [7] 0.163 | barasertib -0.07 | [11] -0.005 | [12] -0.018 | [13] -0.067 | sotrastaurin -0.028

STARD8 isoform 2 (UniProt Q92502)
inactive: ibrutinib -0.265 | ralimetinib 0.097 | [2] 0.106 | [5] -0.253 | [6] -0.045 | [7] 0.111 | barasertib 0.075 | [10] -0.063 | [11] 0.02 | saracatinib 0.177 | sotrastaurin 0.11

SPRED1 (UniProt Q7Z699)
inactive: ibrutinib 0.038 | [1] -0.026 | ralimetinib -0.002 | [2] 0.017 | [3] 0.078 | [5] -0.088 | [7] -0.104 | [8] -0.024 | [9] -0.065 | barasertib 0.293 | [10] 0.053 | volasertib -0.001 | [11] -0.132 | [12] -0.003 | [13] -0.009 | saracatinib -0.055

SPRYD3 (UniProt Q8NCJ5)
inactive: ibrutinib 0.031 | ralimetinib -0.045 | [2] 0.017 | [3] 0.051 | [6] 0.001 | [7] 0.035 | barasertib 0.007 | [11] -0.022 | [12] -0.369 | [13] -0.146 | sotrastaurin 0

SPATA33 isoform 2 (UniProt Q96N06)
inactive: ibrutinib 0.106 | [1] 0.167 | ralimetinib -0.154 | [2] -0.068 | [4] 0.078 | [5] -0.089 | [7] -0.045 | [8] 0.151 | vemurafenib 0.082 | [9] -0.255 | barasertib 0.015 | [10] 0.022 | volasertib -0.285 | [11] 0.055 | [12] -0.279 | [13] 0.126 | saracatinib 0.163

SPIRE1 (UniProt Q08AE8)
inactive: ibrutinib 0.082 | [1] -0.031 | ralimetinib -0.028 | [2] 0.011 | [3] -0.014 | [4] -0.069 | [5] 0.002 | [6] 0.014 | [7] 0.016 | [8] -0.05 | vemurafenib 0.009 | [9] 0.05 | barasertib 0.023 | [10] 0.051 | volasertib -0.016 | [11] 0.003 | [12] -0.298 | [13] 0.077 | saracatinib 0.017 | sotrastaurin 0.089

SPTA1 (UniProt P02549)
inactive: ibrutinib -0.008 | [1] -0.004 | ralimetinib 0.025 | [2] 0.018 | [3] -0.023 | [4] 0.003 | [5] -0.017 | [6] -0.013 | [7] 0.033 | [8] 0.009 | vemurafenib -0.01 | [9] 0.012 | barasertib 0.006 | [10] -0.052 | volasertib -0.055 | [11] 0.041 | [12] -0.017 | [13] -0.034 | saracatinib 0.011 | sotrastaurin 0.018

SPINT1 (UniProt O43278)
inactive: ibrutinib -0.012 | [1] 0.026 | [3] -0.05 | [4] 0.014 | [6] -0.054 | [8] -0.031 | [9] 0.028 | barasertib -0.012 | volasertib 0.037 | [12] -0.001 | [13] -0.018 | sotrastaurin 0.129

ST3GAL4 isoform 4 (UniProt Q11206)
inactive: ibrutinib 0.344 | ralimetinib 0.053 | [2] -0.049 | [3] -0.1 | [4] 0.133 | [5] 0.017 | [6] -0.015 | [7] 0.046 | vemurafenib -0.051 | barasertib 0.1 | [10] 0.308 | [11] -0.162 | [12] -0.034 | [13] -0.152 | saracatinib 0.138 | sotrastaurin 0.046

SRGAP2, A0A075B7B5
inactive: [6] 0.029 | sotrastaurin 0.144

SPTAN1 isoform 3 (UniProt Q13813)
inactive: ibrutinib -0.005 | [6] 0.138 | vemurafenib -0.062 | barasertib -0.026 | [10] 0.072 | sotrastaurin 0

SSX2IP (UniProt Q9Y2D8)
inactive: ralimetinib -0.028 | [2] -0.071 | [4] 0.068 | [7] 0.048 | vemurafenib 0.034 | [10] -0.002 | [11] 0.119 | [12] 0.131 | [13] 0.178

SREK1IP1 (UniProt Q8N9Q2)
inactive: [1] 0.01 | ralimetinib 0.005 | [2] -0.032 | [3] -0.075 | [4] 0.016 | [6] -0.044 | [7] 0.023 | [8] 0.051 | [9] -0.019 | [10] 0.088 | volasertib -0.039 | [11] 0.058 | [12] 0.267 | [13] -0.102 | sotrastaurin -0.049

SSR2 (UniProt P43308)
inactive: ralimetinib 0.037 | [2] -0.019 | [7] -0.052 | [11] -0.04

SREBF1 isoform 4 (UniProt P36956)
inactive: [1] -0.099 | ralimetinib -0.025 | [2] -0.121 | [3] -0.076 | [5] -0.099 | [6] 0.058 | [7] 0.103 | [8] 0.112 | [9] -0.223 | volasertib -0.114 | [11] 0.051 | saracatinib 0.113 | sotrastaurin 0.03

2 consecutive entries out of the list so far, quoted:
SSR2 (UniProt P43308)
inactive: ralimetinib 0.037 | [2] -0.019 | [7] -0.052 | [11] -0.04

SREBF1 isoform 4 (UniProt P36956)
inactive: [1] -0.099 | ralimetinib -0.025 | [2] -0.121 | [3] -0.076 | [5] -0.099 | [6] 0.058 | [7] 0.103 | [8] 0.112 | [9] -0.223 | volasertib -0.114 | [11] 0.051 | saracatinib 0.113 | sotrastaurin 0.03

Later entries.

SQOR (UniProt Q9Y6N5)
inactive: [1] -0.147 | ralimetinib 0.021 | [2] 0.018 | [3] 0.082 | [5] 0.017 | [6] -0.021 | [7] 0.058 | [8] 0.01 | [9] 0.024 | [10] -0.033 | volasertib -0.041 | [11] -0.018 | saracatinib -0.03 | sotrastaurin -0.046

SPIN4 (UniProt Q56A73)
inactive: vemurafenib 0.146 | [12] -0.183 | [13] 0.032

SPC24 (UniProt K7ESQ2)
inactive: [6] -0.001 | [10] 0.093 | [12] -0.036 | [13] -0.046 | sotrastaurin -0.066

SPRY2 (UniProt O43597)
inactive: [3] -0.084

ST3GAL1 (UniProt Q11201)
inactive: [5] -0.244 | [6] -0.076 | saracatinib -0.186 | sotrastaurin 0
